Record: PubChem BioAssay AID686938 (Drosophila RNAi Screening Center, 2013)
In all, the deposit lists about 23,000 reagents; this is a random part of those that have a named target and a result. Over the whole deposit, 75 (0.33%) are marked active. 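Raw plate signals without normalisation; calls rest on plate z-scores that were not deposited; ratio present for only 364 wells.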 Names joined by + are all predicted targets of the reagent. Not given: the dose of the treatment.

Aim: 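Fly genes required for calcium entry once internal stores are emptied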 (primary screen)
Cell system: Drosophila S2R+ cells
Reagents: long dsRNA against Drosophila genes, about 0.25 µg dsRNA per well, roughly 10,000 cells
Time to read-out: 5 days of knock-down before the calcium assay
Conditions: thapsigargin (SERCA pump blocker) to empty calcium stores; entry signal taken 4 min after adding it
Detection: 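Per-well fluo-4 fluorescence in two replicates, unnormalised, measured in resting cells and 4 min after store depletion by the SERCA blocker thapsigargin; ratio of the two present in few wells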
Direction: calcium entry signal: higher = stronger calcium signal after store depletion; resting calcium signal: higher = higher resting calcium signal
Hit rule: 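Hit if the duplicate-averaged plate z-score for entry over resting signal is under −3; wells with weak total dye signal (Fmax z < −2) or more than 5 off-targets removed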
Calls: active = strongly reduced calcium entry; inactive = no strong reduction

sotv + CG10731 [DRSC05930]
- calcium entry signal, replicate 1 (fluorescence units): 4.73e7
- calcium entry signal, replicate 2 (fluorescence units): 4.14e7
- resting calcium signal, replicate 1 (fluorescence units): 2.02e7
- resting calcium signal, replicate 2 (fluorescence units): 2.02e7
- Call: inactive

sotv + CG10731 [DRSC05997]
- calcium entry signal, replicate 1 (fluorescence units): 5.16e7
- calcium entry signal, replicate 2 (fluorescence units): 4.21e7
- resting calcium signal, replicate 1 (fluorescence units): 2.26e7
- resting calcium signal, replicate 2 (fluorescence units): 2.04e7
- Call: inactive

CG3123 [DRSC00570]
- calcium entry signal, replicate 1 (fluorescence units): 3.64e7
- calcium entry signal, replicate 2 (fluorescence units): 4.07e7
- resting calcium signal, replicate 1 (fluorescence units): 1.71e7
- resting calcium signal, replicate 2 (fluorescence units): 1.75e7
- Call: inactive

CG32447 [DRSC11732]
- calcium entry signal, replicate 1 (fluorescence units): 3.34e7
- calcium entry signal, replicate 2 (fluorescence units): 3.98e7
- resting calcium signal, replicate 1 (fluorescence units): 1.60e7
- resting calcium signal, replicate 2 (fluorescence units): 2.61e7
- Call: inactive

CG32447 [DRSC11805]
- calcium entry signal, replicate 1 (fluorescence units): 2.89e7
- calcium entry signal, replicate 2 (fluorescence units): 4.23e7
- resting calcium signal, replicate 1 (fluorescence units): 1.44e7
- resting calcium signal, replicate 2 (fluorescence units): 2.03e7
- Call: inactive

CG12128 [DRSC06104]
- calcium entry signal, replicate 1 (fluorescence units): 3.95e7
- calcium entry signal, replicate 2 (fluorescence units): 3.73e7
- resting calcium signal, replicate 1 (fluorescence units): 1.79e7
- resting calcium signal, replicate 2 (fluorescence units): 1.89e7
- Call: inactive

Fsn [DRSC06875]
- calcium entry signal, replicate 1 (fluorescence units): 2.65e7
- calcium entry signal, replicate 2 (fluorescence units): 2.51e7
- resting calcium signal, replicate 1 (fluorescence units): 1.30e7
- resting calcium signal, replicate 2 (fluorescence units): 1.22e7
- Call: inactive

CG30268 [DRSC21983]
- calcium entry signal, replicate 1 (fluorescence units): 1.99e7
- calcium entry signal, replicate 2 (fluorescence units): 3.83e7
- resting calcium signal, replicate 1 (fluorescence units): 1.00e7
- resting calcium signal, replicate 2 (fluorescence units): 1.93e7
- Call: inactive

ERR [DRSC10840]
- calcium entry signal, replicate 1 (fluorescence units): 4.81e7
- calcium entry signal, replicate 2 (fluorescence units): 4.34e7
- resting calcium signal, replicate 1 (fluorescence units): 2.98e7
- resting calcium signal, replicate 2 (fluorescence units): 2.00e7
- Call: inactive

CG31493 [DRSC12583]
- calcium entry signal, replicate 1 (fluorescence units): 4.11e7
- calcium entry signal, replicate 2 (fluorescence units): 4.60e7
- resting calcium signal, replicate 1 (fluorescence units): 1.73e7
- resting calcium signal, replicate 2 (fluorescence units): 1.94e7
- Call: inactive

Roe1 [DRSC07534]
- calcium entry signal, replicate 1 (fluorescence units): 2.38e7
- calcium entry signal, replicate 2 (fluorescence units): 2.86e7
- resting calcium signal, replicate 1 (fluorescence units): 1.20e7
- resting calcium signal, replicate 2 (fluorescence units): 1.37e7
- Call: inactive

MCPH1 [DRSC06309]
- calcium entry signal, replicate 1 (fluorescence units): 2.92e7
- calcium entry signal, replicate 2 (fluorescence units): 3.14e7
- resting calcium signal, replicate 1 (fluorescence units): 1.30e7
- resting calcium signal, replicate 2 (fluorescence units): 1.53e7
- Call: inactive

MCPH1 [DRSC07308]
- calcium entry signal, replicate 1 (fluorescence units): 3.78e7
- calcium entry signal, replicate 2 (fluorescence units): 3.76e7
- resting calcium signal, replicate 1 (fluorescence units): 1.91e7
- resting calcium signal, replicate 2 (fluorescence units): 1.72e7
- Call: inactive

MCPH1 [DRSC22536]
- calcium entry signal, replicate 1 (fluorescence units): 2.33e7
- calcium entry signal, replicate 2 (fluorescence units): 2.95e7
- resting calcium signal, replicate 1 (fluorescence units): 1.24e7
- resting calcium signal, replicate 2 (fluorescence units): 1.21e7
- Call: inactive

Fer1HCH [DRSC16671]
- calcium entry signal, replicate 1 (fluorescence units): 2.29e7
- calcium entry signal, replicate 2 (fluorescence units): 2.63e7
- resting calcium signal, replicate 1 (fluorescence units): 1.32e7
- resting calcium signal, replicate 2 (fluorescence units): 1.44e7
- Call: inactive

CG4896 [DRSC00671]
- calcium entry signal, replicate 1 (fluorescence units): 4.49e7
- resting calcium signal, replicate 1 (fluorescence units): 2.51e7
- Call: inactive

CG5381 [DRSC02852]
- calcium entry signal, replicate 1 (fluorescence units): 3.09e7
- calcium entry signal, replicate 2 (fluorescence units): 3.54e7
- resting calcium signal, replicate 1 (fluorescence units): 1.45e7
- resting calcium signal, replicate 2 (fluorescence units): 1.43e7
- Call: inactive

CG11474 [DRSC04112]
- calcium entry signal, replicate 1 (fluorescence units): 3.24e7
- resting calcium signal, replicate 1 (fluorescence units): 1.65e7
- Call: inactive

CG15317 [DRSC18005]
- calcium entry signal, replicate 1 (fluorescence units): 3.48e7
- calcium entry signal, replicate 2 (fluorescence units): 4.02e7
- resting calcium signal, replicate 1 (fluorescence units): 1.65e7
- resting calcium signal, replicate 2 (fluorescence units): 1.83e7
- Call: inactive

Vps35 [DRSC04519]
- calcium entry signal, replicate 1 (fluorescence units): 2.70e7
- resting calcium signal, replicate 1 (fluorescence units): 1.55e7
- Call: inactive

Fam92 [DRSC02952]
- calcium entry signal, replicate 1 (fluorescence units): 4.33e7
- resting calcium signal, replicate 1 (fluorescence units): 2.10e7
- Call: inactive

Only “calcium entry signal, replicate 1 (fluorescence units)” (2 entries from above):
sotv + CG10731 [DRSC05930]	4.73e7
sotv + CG10731 [DRSC05997]	5.16e7
